Tested on: TYK2
Test: IL-12-stimulated IFN-γ production in human whole blood
Assay type: cell-based
Conditions: read-out: Whole blood IC50 (95% CI), TYK2 (IL-12–induced IFN-γ release)

CCS(=O)(=O)N1CC(CC#N)(n2cc(-c3ncnc4[nH]ccc34)cn2)C1 [Baricitinib]
IC50: 2350 nM
